PubChem BioAssay AID1259405 – NCATS – 2018
This is one part, drawn at random, of about 50,000 reagents. In the full data, about 4,000 (8%) were called active. 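Mouse siRNA library applied to hamster cells; one well for each siRNA.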 Unmarked entries are inactive. Reagents against one gene are numbered here. Reagent sequences are not shown.

- Screen: 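Knock-downs that lift recombinant protein yield in hamster ovary cells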 (primary screen)
- System: Chinese hamster CHO-K1 ovary cells with stable secreted eGFP expression
- Reagents: single siRNA against mouse genes, 0.8 pmol siRNA per well (2 µl of 400 nM stock)
- Duration: 3 days
- Measured: 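Per-well intracellular GFP measured by laser scanning cytometry, plus viability from ATP luminescence, each relative to plate median of non-targeting control wells, in %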
- Scale: GFP, % of control: higher = more GFP per well, higher productivity; viability (ATP), % of control: higher = more viable cells (more ATP)
- Active means: 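a knock-down is called active if GFP reaches 120% or more of non-targeting control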

Acyp1 (acylphosphatase 1) #1 showed GFP, % of control 92.7; viability (ATP), % of control 82.4.
Against Acyp1 (acylphosphatase 1) #2, the entry reads GFP, % of control 48.2; viability (ATP), % of control 61.5.
Depletion of Acyp1 (acylphosphatase 1) #3 resulted in: GFP, % of control 81.1; viability (ATP), % of control 97.
Depletion of Yeats4 (YEATS domain containing 4) #1 gave: GFP, % of control 63.7; viability (ATP), % of control 92.7.
Yeats4 (YEATS domain containing 4) #2 scored GFP, % of control 29.2; viability (ATP), % of control 43.7.
Yeats4 (YEATS domain containing 4) #3 gave GFP, % of control 32.2; viability (ATP), % of control 61.4.
Depletion of Fbrsl1 (fibrosin-like 1) #1 gave: GFP, % of control 69; viability (ATP), % of control 67.3.
Fbrsl1 (fibrosin-like 1) #2 scored GFP, % of control 71.4; viability (ATP), % of control 72.9.
Fbrsl1 (fibrosin-like 1) #3 showed GFP, % of control 72.9; viability (ATP), % of control 76.9.
Rad1 (RAD1 checkpoint DNA exonuclease) #1 scored GFP, % of control 102; viability (ATP), % of control 79.5.
Rad1 (RAD1 checkpoint DNA exonuclease) #2 gave GFP, % of control 73.2; viability (ATP), % of control 92.1.
Rad1 (RAD1 checkpoint DNA exonuclease) #3 scored GFP, % of control 76.7; viability (ATP), % of control 84.1.
With knock-down of Zc3h3 (zinc finger CCCH type containing 3) #1, the screen gave GFP, % of control 53.6; viability (ATP), % of control 33.7.
Knock-down of Zc3h3 (zinc finger CCCH type containing 3) #2 came out at: GFP, % of control 57.5; viability (ATP), % of control 63.7.
Zc3h3 (zinc finger CCCH type containing 3) #3 gave GFP, % of control 0.357; viability (ATP), % of control 127.
Against Klf13 (Kruppel-like transcription factor 13) #1 the deposit lists GFP, % of control 74.2; viability (ATP), % of control 58.5.
With knock-down of Klf13 (Kruppel-like transcription factor 13) #2, the record shows GFP, % of control 47.8; viability (ATP), % of control 82.3.
Against Klf13 (Kruppel-like transcription factor 13) #3, the entry reads GFP, % of control 76.2; viability (ATP), % of control 94.6.
Tubb2b (tubulin, beta 2B class IIB) #1 gave GFP, % of control 54.9; viability (ATP), % of control 81.
Tubb2b (tubulin, beta 2B class IIB) #2 gave GFP, % of control 85.5; viability (ATP), % of control 107.
Knock-down of Plekhn1 (pleckstrin homology domain containing N1) #1 resulted in: GFP, % of control 159 (active); viability (ATP), % of control 59.9.
For Plekhn1 (pleckstrin homology domain containing N1) #2, the values are GFP, % of control 51.6; viability (ATP), % of control 63.4.
Plekhn1 (pleckstrin homology domain containing N1) #3 gave GFP, % of control 170 (active); viability (ATP), % of control 169.
After knock-down of Plekhn1 (pleckstrin homology domain containing N1) #4, the screen gave GFP, % of control 56.6; viability (ATP), % of control 96.1.
With knock-down of Plekhn1 (pleckstrin homology domain containing N1) #5, the screen gave GFP, % of control 83.2; viability (ATP), % of control 87.9.
Plekhn1 (pleckstrin homology domain containing N1) #6 gave GFP, % of control 95.1; viability (ATP), % of control 70.4.
Against Dennd5b (DENN domain containing 5B) #1, the entry reads GFP, % of control 64.8; viability (ATP), % of control 80.1.
Against Dennd5b (DENN domain containing 5B) #2, the entry reads GFP, % of control 67.3; viability (ATP), % of control 92.9.
Depletion of Dennd5b (DENN domain containing 5B) #3 gave: GFP, % of control 80.4; viability (ATP), % of control 99.3.
Dlg1 (discs large MAGUK scaffold protein 1) #1 showed GFP, % of control 106; viability (ATP), % of control 82.5.
Silencing of Dlg1 (discs large MAGUK scaffold protein 1) #2 came out at: GFP, % of control 97.7; viability (ATP), % of control 75.6.
Silencing of Tlr5 (toll-like receptor 5) #1 gave: GFP, % of control 84.7; viability (ATP), % of control 79.
For Tlr5 (toll-like receptor 5) #2, the values are GFP, % of control 139 (active); viability (ATP), % of control 78.3.
With knock-down of Tlr5 (toll-like receptor 5) #3, the record shows GFP, % of control 74.9; viability (ATP), % of control 77.7.
For Izumo1 (izumo sperm-egg fusion 1) #1 the deposit lists GFP, % of control 65.8; viability (ATP), % of control 84.2.
After knock-down of Izumo1 (izumo sperm-egg fusion 1) #2, the screen gave GFP, % of control 54.3; viability (ATP), % of control 86.
Silencing of Izumo1 (izumo sperm-egg fusion 1) #3 resulted in: GFP, % of control 86.4; viability (ATP), % of control 88.8.
Against Sectm1a (secreted and transmembrane 1A) #1, the entry reads GFP, % of control 78.1; viability (ATP), % of control 80.7.
Knock-down of Sectm1a (secreted and transmembrane 1A) #2 gave: GFP, % of control 54.5; viability (ATP), % of control 93.4.
Sectm1a (secreted and transmembrane 1A) #3 gave GFP, % of control 144 (active); viability (ATP), % of control 164.
Knock-down of Serpinb12 #1 came out at: GFP, % of control 122 (active); viability (ATP), % of control 90.7.
Silencing of Serpinb12 #2 came out at: GFP, % of control 108; viability (ATP), % of control 98.2.
Against Serpinb12 #3, the values are GFP, % of control 105; viability (ATP), % of control 114.
Silencing of Rad51b (RAD51 paralog B) #1 gave: GFP, % of control 33.7; viability (ATP), % of control 29.6.
Depletion of Rad51b (RAD51 paralog B) #2 resulted in: GFP, % of control 61.2; viability (ATP), % of control 84.9.
Against Rad51b (RAD51 paralog B) #3, the values are GFP, % of control 64.9; viability (ATP), % of control 60.3.
For Mavs (mitochondrial antiviral signaling protein) #1, the entry reads GFP, % of control 118; viability (ATP), % of control 87.1.
With knock-down of Mavs (mitochondrial antiviral signaling protein) #2, the screen gave GFP, % of control 84.2; viability (ATP), % of control 56.9.
Knock-down of Mavs (mitochondrial antiviral signaling protein) #3 gave: GFP, % of control 112; viability (ATP), % of control 90.4.
Knock-down of Ldaf1 (lipid droplet assembly factor 1) #1 came out at: GFP, % of control 96.3; viability (ATP), % of control 65.1.
For Ldaf1 (lipid droplet assembly factor 1) #2, the values are GFP, % of control 91.3; viability (ATP), % of control 93.4.
Against Ldaf1 (lipid droplet assembly factor 1) #3, the entry reads GFP, % of control 138 (active); viability (ATP), % of control 136.
